Assay results reported in paper doi:10.1101/2024.03.29.587371.
No constants are given. Whether binding was seen depends on the method and setting. In cells and extracts the contact can be indirect. Tags and fused reporters may be left off the sequences shown.

Amino acid sequences for entries named in this document (tags omitted).
UniProt Q9LIK5: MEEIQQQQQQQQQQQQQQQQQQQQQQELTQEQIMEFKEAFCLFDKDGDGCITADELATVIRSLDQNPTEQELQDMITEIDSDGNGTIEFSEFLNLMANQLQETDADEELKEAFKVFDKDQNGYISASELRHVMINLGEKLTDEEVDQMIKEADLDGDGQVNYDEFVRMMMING
UniProt O23320: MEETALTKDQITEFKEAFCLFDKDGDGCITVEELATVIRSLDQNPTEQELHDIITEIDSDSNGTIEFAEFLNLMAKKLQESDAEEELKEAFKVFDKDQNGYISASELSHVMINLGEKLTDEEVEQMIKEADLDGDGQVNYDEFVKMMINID

Key:
Experiment in all cases: split reporter
[1] = target: CLuc-AtCML11 (Arabidopsis thaliana) (UniProt Q9LIK5)
[2] = target: T1, CLuc-AtCML42 (Arabidopsis thaliana) (UniProt Q9SVG9)
T1 sequence: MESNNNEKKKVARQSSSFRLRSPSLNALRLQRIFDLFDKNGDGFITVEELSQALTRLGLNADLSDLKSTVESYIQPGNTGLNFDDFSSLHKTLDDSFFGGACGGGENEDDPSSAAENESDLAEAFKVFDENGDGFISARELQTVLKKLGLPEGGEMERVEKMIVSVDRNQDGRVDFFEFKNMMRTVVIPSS

[3] = target: CLuc-AtCML8 (Arabidopsis thaliana) (UniProt O23320)

Measured: binding

B1: NLuc-AtFBA4 (enzyme, UniProt F4KGQ0 1-393)
chain: MSCFKSKFAGKSYFRRTFHSSIIQFHPQLSILIWHRRYSIIRTYELIANAAYIGTPGKGILAADESTGTIGKRFVSINVENVESNRRALRELLFTTPGALQYISGIILFEETLYQKTASGKLFVDVMKEAGVLPGIKVDKGTVELAGTNGETTTTGLDGLGDRCKKYYEAGARFAKWRAVLKIGNNEPSELAIHENAYGLARYAVICQENGLVPIVEPEILVDGSHDIEKCAYVTERVLAACYKALSDHHVILEGTLLKPNMVTPGSDSGSKVKPEVIAKHTVRALQRTVPAAVPAVVFLSGGQSEEEATVNLNAINQLKGKKPWSLTFSYGRALQQSTLKAWGGKEENVDKAQKAFLARAKANSEATLGGYKGDAQLGEGASESLHVKDYKY
no binding: all assays above
